PubChem BioAssay AID743121 | NCATS | 2013
Here is one part, drawn at random, of about 26,000 reagents. 167 of them (0.63%) were called active. 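Calls are per gene from RSA p-values that are not deposited; an individual active-marked siRNA can sensitise only weakly.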 The numbers tell different reagents against one gene apart. Further read-outs or replicates are left out here.

Screen: 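Knock-downs that sensitise breast cancer cells to camptothecin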 (primary screen)
Cells: MDA-MB-231 cells, a human breast cancer line
Knock-down reagent: single siRNA against human genes, 20 nM siRNA (0.8 pmol per well)
Time to read-out: 120 h (drug added 48 h after transfection, read 72 h later)
Conditions: camptothecin 20 nM (about EC30) for 72 h; vehicle 0.1% DMSO in parallel plates
Detection: 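CellTiter-Glo ATP signal, scaled to control siRNA as percent viability; sensitisation given as log2 of untreated divided by camptothecin-treated viability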
Scale: log2 vehicle/camptothecin viability: higher = stronger sensitisation to camptothecin; viability with camptothecin: higher = more viable cells
Call rule: 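Active genes have an RSA gene-level p-value below 0.001, computed from the ratios of their separate siRNAs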

| target gene | reagent no. | log2 vehicle/camptothecin viability | viability with camptothecin (% of control) | outcome |
| --- | --- | --- | --- | --- |
| PECR | 1 | -0.111 | 116 | inactive |
| PECR | 2 | -0.428 | 87.3 | inactive |
| PECR | 3 | 0.00386 | 83 | inactive |
| PECR | 4 | -0.297 | 94.1 | inactive |
| CD58 | 1 | 0.0472 | 92.7 | inactive |
| CD58 | 2 | -0.552 | 87.5 | inactive |
| CD58 | 3 | -0.352 | 104 | inactive |
| TRAF3IP3 | 1 | 0.301 | 79.3 | inactive |
| TRAF3IP3 | 2 | 0.212 | 71.2 | inactive |
| TRAF3IP3 | 3 | 0.0477 | 43.8 | inactive |
| TRAF3IP3 | 4 | 0.848 | 22.6 | inactive |
| ITGB6 | 1 | -0.0913 | 103 | inactive |
| ITGB6 | 2 | 0.35 | 62.6 | inactive |
| ITGB6 | 3 | 0.103 | 48.4 | inactive |
| PRKAA1 | 1 | 0.89 | 45.9 | inactive |
| PRKAA1 | 2 | 0.15 | 73.6 | inactive |
| PRKAA1 | 3 | 0.1 | 70.3 | inactive |
| PRKAA1 | 4 | -0.581 | 73.1 | inactive |
| ANP32E | 1 | -0.417 | 77.9 | inactive |
| ANP32E | 2 | -0.0514 | 92.9 | inactive |
| ANP32E | 3 | -0.302 | 68.8 | inactive |
| ANP32E | 4 | 0.0233 | 91.7 | inactive |

Look-ups from the list:
CD58 #3, viability with camptothecin (% of control) → 104
For “viability with camptothecin (% of control)”, TRAF3IP3 #4 is entered as 22.6
Under “viability with camptothecin (% of control)”, ANP32E #2 has 92.9
Value for CD58 #1 in “log2 vehicle/camptothecin viability”: 0.0472
PRKAA1 #3, viability with camptothecin (% of control) = 70.3
Result of PECR #3 in “viability with camptothecin (% of control)”: 83

More records follow.
| target gene | reagent no. | log2 vehicle/camptothecin viability | viability with camptothecin (% of control) | outcome |
| --- | --- | --- | --- | --- |
| LINGO1 | 1 | -0.6 | 101 | inactive |
| LINGO1 | 2 | 0.0843 | 94 | inactive |
| LINGO1 | 3 | -0.253 | 56.6 | inactive |
| SLC8B1 | 1 | -0.0406 | 109 | inactive |
| SLC8B1 | 2 | -0.193 | 81 | inactive |
| SLC8B1 | 3 | -0.207 | 57.9 | inactive |
| SLC8B1 | 4 | 0.14 | 57.5 | inactive |
| OPTN | 1 | -0.247 | 92.3 | inactive |
| OPTN | 2 | -0.0919 | 110 | inactive |
| OPTN | 3 | 0.0187 | 71.3 | inactive |
| OPTN | 4 | 0.0635 | 90.1 | inactive |
| PTPRN2 | 1 | -0.0324 | 102 | inactive |
| PTPRN2 | 2 | -0.68 | 58.7 | inactive |
| PTPRN2 | 3 | 0.0143 | 30.3 | inactive |
| PTPRN2 | 4 | -0.111 | 90 | inactive |
| ACHE | 1 | -0.634 | 105 | inactive |
| ACHE | 2 | -0.291 | 56.4 | inactive |
| ACHE | 3 | -0.0434 | 83.6 | inactive |
| ACHE | 4 | -0.168 | 51.1 | inactive |
| FOXC1 | 1 | -0.272 | 50.3 | inactive |
| FOXC1 | 2 | -0.335 | 75.5 | inactive |
| FOXC1 | 3 | 0.00914 | 91.9 | inactive |
| FOXC1 | 4 | -0.227 | 75.7 | inactive |
| LYZ | 1 | -0.501 | 97.5 | inactive |
| LYZ | 2 | -0.362 | 80 | inactive |
| LYZ | 3 | 0.5 | 53.1 | inactive |
| LYZ | 4 | -0.0762 | 48.4 | inactive |
